Test results reported in patent publication US20190350964A1, “ANTI-CANCER COMPOUNDS AND USES THEREOF” (NATIONAL UNIVERSITY OF SINGAPORE, priority 2016, published 2019).
Structures were worked out from names or drawings and are uncertain.

Sequences of proteins named here, by UniProt entry; tags and fusion partners are left off. Residues count along the entry.
UniProt P36551, 111-454 limits assumed: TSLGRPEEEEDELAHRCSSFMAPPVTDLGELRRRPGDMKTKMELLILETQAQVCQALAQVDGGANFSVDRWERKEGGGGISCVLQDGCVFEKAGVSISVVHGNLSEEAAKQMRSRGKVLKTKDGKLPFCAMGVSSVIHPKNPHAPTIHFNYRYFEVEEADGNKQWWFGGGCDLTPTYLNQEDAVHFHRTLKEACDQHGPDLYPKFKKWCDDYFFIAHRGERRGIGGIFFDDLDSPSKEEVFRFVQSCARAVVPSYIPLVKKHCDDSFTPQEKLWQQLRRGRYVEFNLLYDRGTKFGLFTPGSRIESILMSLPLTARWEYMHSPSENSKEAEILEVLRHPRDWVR
UniProt Q13011, 34-328 limits assumed: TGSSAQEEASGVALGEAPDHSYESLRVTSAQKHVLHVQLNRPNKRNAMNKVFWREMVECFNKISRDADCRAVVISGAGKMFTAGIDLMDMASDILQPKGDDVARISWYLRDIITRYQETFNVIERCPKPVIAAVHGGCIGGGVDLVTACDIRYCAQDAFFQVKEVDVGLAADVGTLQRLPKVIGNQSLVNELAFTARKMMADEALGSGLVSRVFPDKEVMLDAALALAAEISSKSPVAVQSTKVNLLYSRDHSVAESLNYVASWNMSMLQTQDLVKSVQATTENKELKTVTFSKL
UniProt Q6AWC2, 1-1216 isoform 6: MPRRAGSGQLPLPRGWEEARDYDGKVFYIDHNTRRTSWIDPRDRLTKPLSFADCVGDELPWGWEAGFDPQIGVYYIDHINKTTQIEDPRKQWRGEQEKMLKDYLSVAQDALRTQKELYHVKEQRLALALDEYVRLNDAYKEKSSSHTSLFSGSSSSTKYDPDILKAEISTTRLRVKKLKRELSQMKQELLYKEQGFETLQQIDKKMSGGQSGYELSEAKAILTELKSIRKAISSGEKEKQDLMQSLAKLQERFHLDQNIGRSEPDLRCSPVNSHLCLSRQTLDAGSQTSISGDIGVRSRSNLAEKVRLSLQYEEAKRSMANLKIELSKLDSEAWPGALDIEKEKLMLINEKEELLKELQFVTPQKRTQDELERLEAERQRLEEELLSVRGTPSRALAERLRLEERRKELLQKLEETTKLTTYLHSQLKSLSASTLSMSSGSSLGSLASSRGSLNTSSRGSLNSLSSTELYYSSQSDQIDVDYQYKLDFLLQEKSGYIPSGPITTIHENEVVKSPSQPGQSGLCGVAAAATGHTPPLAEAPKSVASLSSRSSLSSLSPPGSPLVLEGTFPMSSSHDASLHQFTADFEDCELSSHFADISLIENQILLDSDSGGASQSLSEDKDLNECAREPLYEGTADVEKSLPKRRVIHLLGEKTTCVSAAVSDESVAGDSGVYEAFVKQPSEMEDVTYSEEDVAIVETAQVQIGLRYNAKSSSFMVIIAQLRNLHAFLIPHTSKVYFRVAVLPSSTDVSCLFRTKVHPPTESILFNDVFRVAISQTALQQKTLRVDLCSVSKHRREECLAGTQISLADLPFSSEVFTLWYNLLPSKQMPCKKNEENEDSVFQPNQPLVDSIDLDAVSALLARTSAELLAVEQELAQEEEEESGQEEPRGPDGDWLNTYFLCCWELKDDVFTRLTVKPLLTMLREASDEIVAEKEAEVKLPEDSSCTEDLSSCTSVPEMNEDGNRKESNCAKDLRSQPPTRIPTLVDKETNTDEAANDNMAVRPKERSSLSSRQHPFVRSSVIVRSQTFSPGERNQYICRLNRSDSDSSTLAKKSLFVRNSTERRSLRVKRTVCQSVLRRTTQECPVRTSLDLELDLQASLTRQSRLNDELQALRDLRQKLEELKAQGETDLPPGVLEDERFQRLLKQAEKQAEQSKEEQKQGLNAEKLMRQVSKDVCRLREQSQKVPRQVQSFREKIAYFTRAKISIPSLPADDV
UniProt Q10713, 34-525 limits assumed: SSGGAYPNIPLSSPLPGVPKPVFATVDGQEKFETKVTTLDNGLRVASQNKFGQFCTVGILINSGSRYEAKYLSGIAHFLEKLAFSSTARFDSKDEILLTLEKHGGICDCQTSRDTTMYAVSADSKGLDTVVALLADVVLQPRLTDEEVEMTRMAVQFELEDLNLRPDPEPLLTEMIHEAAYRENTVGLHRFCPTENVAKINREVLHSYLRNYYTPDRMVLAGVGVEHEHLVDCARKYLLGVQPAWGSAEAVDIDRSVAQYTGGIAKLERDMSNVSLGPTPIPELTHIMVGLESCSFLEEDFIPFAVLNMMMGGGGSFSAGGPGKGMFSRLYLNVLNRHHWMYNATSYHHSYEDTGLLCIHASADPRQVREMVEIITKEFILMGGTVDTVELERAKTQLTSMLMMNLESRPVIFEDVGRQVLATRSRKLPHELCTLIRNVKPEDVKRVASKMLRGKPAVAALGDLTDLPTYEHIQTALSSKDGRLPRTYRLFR
UniProt Q9HBL8, whole entry: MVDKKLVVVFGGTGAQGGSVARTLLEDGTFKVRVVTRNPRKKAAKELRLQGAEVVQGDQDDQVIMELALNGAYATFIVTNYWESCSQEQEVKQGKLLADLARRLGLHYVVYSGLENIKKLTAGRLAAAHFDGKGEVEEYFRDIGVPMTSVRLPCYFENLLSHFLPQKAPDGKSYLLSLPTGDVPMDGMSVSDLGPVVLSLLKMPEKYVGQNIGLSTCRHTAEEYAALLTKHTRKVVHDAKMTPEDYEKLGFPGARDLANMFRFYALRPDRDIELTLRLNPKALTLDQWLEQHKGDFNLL
UniProt P36969, whole entry: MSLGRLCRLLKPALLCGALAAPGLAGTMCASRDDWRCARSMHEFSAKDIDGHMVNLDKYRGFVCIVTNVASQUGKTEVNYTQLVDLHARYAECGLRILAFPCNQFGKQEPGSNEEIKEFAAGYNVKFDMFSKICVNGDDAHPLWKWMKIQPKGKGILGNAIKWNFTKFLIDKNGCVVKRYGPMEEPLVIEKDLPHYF
UniProt Q92841, whole entry: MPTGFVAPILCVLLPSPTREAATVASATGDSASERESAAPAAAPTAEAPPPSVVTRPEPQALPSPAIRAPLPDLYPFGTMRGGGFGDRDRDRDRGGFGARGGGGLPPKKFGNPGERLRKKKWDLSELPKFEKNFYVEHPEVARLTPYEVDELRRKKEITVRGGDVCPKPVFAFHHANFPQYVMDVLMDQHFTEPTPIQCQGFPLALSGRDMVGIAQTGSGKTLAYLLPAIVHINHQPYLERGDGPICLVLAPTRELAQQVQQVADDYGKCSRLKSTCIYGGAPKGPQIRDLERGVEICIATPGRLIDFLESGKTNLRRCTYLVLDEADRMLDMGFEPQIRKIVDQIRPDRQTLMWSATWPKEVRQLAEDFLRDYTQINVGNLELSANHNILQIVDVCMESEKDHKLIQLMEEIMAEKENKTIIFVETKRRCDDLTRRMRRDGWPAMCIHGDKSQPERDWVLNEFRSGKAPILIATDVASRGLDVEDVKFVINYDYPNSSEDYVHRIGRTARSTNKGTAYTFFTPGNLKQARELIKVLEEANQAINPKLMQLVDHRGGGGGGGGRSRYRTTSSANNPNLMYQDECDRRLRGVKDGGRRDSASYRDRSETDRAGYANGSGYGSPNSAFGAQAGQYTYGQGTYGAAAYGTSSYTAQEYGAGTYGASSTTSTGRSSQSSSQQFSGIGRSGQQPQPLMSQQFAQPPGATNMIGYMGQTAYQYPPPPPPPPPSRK
UniProt Q8N0Z6, whole entry: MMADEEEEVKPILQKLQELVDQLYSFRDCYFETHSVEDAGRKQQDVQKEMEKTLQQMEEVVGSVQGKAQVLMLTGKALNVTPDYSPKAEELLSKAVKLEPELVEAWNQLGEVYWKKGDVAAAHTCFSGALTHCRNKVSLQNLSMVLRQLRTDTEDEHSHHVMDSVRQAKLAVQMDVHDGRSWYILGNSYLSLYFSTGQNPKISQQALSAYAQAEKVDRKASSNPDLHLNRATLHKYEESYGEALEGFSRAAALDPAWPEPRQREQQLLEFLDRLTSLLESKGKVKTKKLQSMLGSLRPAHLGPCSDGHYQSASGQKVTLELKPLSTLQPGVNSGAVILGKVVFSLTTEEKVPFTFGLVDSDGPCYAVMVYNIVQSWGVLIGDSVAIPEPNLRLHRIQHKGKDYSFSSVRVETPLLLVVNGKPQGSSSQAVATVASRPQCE
UniProt O75439, 46-489 partner limits assumed: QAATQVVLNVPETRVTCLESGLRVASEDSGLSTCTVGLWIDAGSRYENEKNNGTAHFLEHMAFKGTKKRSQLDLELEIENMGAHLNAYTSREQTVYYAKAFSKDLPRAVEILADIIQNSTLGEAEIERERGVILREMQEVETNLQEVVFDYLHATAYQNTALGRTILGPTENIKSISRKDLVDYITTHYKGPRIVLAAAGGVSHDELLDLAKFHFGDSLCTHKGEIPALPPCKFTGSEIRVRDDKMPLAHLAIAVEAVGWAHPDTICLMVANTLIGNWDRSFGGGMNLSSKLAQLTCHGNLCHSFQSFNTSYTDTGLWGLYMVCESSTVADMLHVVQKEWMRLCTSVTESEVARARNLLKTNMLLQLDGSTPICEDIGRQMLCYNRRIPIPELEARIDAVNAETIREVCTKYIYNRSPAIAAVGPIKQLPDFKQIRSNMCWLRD

Legend:
[1] = biological target: Coproporphyrinogen-III oxidase, mitochondrial (Homo sapiens, UniProt P36551); assay: MS-CETSA in normal BJ cell lysates; conditions: lysate, 100 μM compound
[2] = biological target: Delta(3,5)-Delta(2,4)-dienoyl-CoA isomerase, mitochondrial (Homo sapiens, UniProt Q13011); assay: MS-CETSA in normal BJ cell lysates; conditions: lysate, 100 μM compound
[3] = biological target: Isoform 6 of Protein WWC2 (Homo sapiens, UniProt Q6AWC2); assay: MS-CETSA in normal BJ cell lysates; conditions: Uniprot Q6AWC2-6; lysate, 100 μM compound
[4] = biological target: Mitochondrial-processing peptidase subunit alpha (Homo sapiens, UniProt Q10713); assay: MS-CETSA in normal BJ cell lysates; conditions: lysate, 100 μM compound
[5] = biological target: NmrA-like family domain-containing protein 1 (Homo sapiens, UniProt Q9HBL8); assay: MS-CETSA in normal BJ cell lysates; conditions: lysate, 100 μM compound
[6] = biological target: Phospholipid hydroperoxide glutathione peroxidase, mitochondrial (Homo sapiens, UniProt P36969); assay: MS-CETSA in normal BJ cell lysates; conditions: lysate, 100 μM compound
[7] = biological target: Probable ATP-dependent RNA helicase DDX17 (Homo sapiens, UniProt Q92841); assay: MS-CETSA in normal BJ cell lysates; conditions: Uniprot H3BLZ8; lysate, 100 μM compound
[8] = biological target: Tetratricopeptide repeat protein 5 (Homo sapiens, UniProt Q8N0Z6); assay: MS-CETSA in normal BJ cell lysates; conditions: lysate, 100 μM compound
[9] = tested on: normal and transformed BJ cells; assay: a131 SAR analysis: pH3(Ser10) immunoblot, BrdU incorporation, subG1 FACS; conditions: 5 μM, 48 h
[10] = tested on: normal and transformed BJ cells; assay: Chemoprotection: a166 pre-treatment followed by a159, paclitaxel or etoposide; conditions: a166 5 μM 48 h, then paclitaxel or etoposide 48-72 h
[11] = tested on: Ras/Raf/MEK/ERK pathway; assay: Immunoblot of ERK phosphorylation; conditions: normal BJ cells, 24 h
[12] = tested on: PIK3IP1; assay: qRT-PCR and immunoblot of PIK3IP1 in BJ cells; conditions: 5 μM, 24 h
[13] = tested on: PIK3IP1; assay: qRT-PCR of PIK3IP1 mRNA in Ras- or Raf-mutant cancer cell lines; conditions: 2.5 and 5 μM, 24 h; compared with normal cells

ED score [1]: 0.5715 | mean Delta Tm [1]: 4.08 °C | ED score [2]: 0.543 | mean Delta Tm [2]: 2.1 °C | ED score [3]: 0.3774 | mean Delta Tm [3]: 3.47 °C | ED score [4]: 0.6182 | mean Delta Tm [4]: 2.72 °C | ED score [5]: 0.3484 | mean Delta Tm [5]: 2.67 °C | ED score [6]: 0.4563 | mean Delta Tm [6]: 1.93 °C | ED score [7]: 0.3454 | mean Delta Tm [7]: 2.01 °C | ED score [8]: 0.2802 | mean Delta Tm [8]: 2.11 °C
SMILES: C(=C\c1c[nH]c2ccccc12)/c1cccc2cnccc12
Group (a131 SAR analysis) [9]: Group 2 | protection of normal BJ cells from paclitaxel and etoposide by pre-treatment [10]: markedly augmented such selectivity by protecting normal BJ cells from chemotherapeutic toxicity | inhibition of the Ras/Raf/MEK/ERK pathway (ERK phosphorylation) [11]: Neither a131 and a166 treatment nor PI5P4Ks knockdown inhibited | PIK3IP1 mRNA and protein levels ([12]; normal BJ cells): up-regulation of PIK3IP1 at both the mRNA and protein levels | PIK3IP1 mRNA expression ([12]; transformed BJ cells): unresponsive | induction of PIK3IP1 in Ras- and Raf-mutant cancer cells [13]: significantly attenuated
